Experimental data taken from PMC7925690, “A molecular switch in sulfur metabolism to reduce arsenic and enrich selenium in rice grain” (Nature Communications, 2021).
No constants are given. Whether binding was seen depends on the method and setting. In cells and extracts the contact can be indirect. Some results given as binding are weak or reduced against the parent protein; the word gives no strength. Sequences can lack the tags named with a protein.

Sequences of proteins named here, by UniProt entry; tags and fusion partners are left off. A change or cut given only in a name is not applied to a line headed by its entry.
UniProt P47998: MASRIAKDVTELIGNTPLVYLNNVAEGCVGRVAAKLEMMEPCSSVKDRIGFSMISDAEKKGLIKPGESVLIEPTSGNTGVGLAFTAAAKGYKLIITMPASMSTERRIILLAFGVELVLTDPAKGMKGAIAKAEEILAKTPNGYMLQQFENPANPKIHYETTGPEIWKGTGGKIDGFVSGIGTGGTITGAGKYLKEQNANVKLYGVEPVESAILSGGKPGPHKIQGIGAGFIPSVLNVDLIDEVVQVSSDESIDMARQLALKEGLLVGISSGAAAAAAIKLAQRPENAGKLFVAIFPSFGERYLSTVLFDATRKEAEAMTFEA

Experiments:
[1] = molecular target: T1, His-AtSAT5 (Arabidopsis thaliana) (UniProt Q42538); assay: pull-down; His-AtSAT5 held on a NiCl2 HiTrap Chelating column, washed with Buffer W (50 mM Tris-HCl pH 8.0, 250 mM NaCl, 80 mM imidazol) and with 10 mM OAS; crude extract of untagged OAS-TL loaded; elution with Buffer W + 10 mM OAS, then 400 mM imidazol; SDS-PAGE, Coomassie; only the target …
T1 sequence: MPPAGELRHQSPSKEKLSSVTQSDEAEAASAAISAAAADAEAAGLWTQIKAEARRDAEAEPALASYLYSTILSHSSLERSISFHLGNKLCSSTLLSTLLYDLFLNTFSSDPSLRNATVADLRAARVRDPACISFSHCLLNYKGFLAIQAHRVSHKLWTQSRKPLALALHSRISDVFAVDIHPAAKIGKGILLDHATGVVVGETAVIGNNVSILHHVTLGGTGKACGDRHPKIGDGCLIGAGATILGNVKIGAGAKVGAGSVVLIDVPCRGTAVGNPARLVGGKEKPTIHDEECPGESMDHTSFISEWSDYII

[2] = molecular target: T1, His-AtSAT5 (Arabidopsis thaliana); assay: as above; remark: listed apart in the source
[3] = molecular target: T1, His-AtSAT5 (Arabidopsis thaliana); assay: pull-down; His-AtSAT5 held on Ni-NTA packed columns, S-tagged OAS-TL loaded; washing buffer 50 mM Tris-HCl pH 8.0, 250 mM NaCl, 20 mM imidazol; OAS elution (10 mM) and final elution; immunoblot with anti-S-tag and anti-His; only the target purified

Row | binding [1] | binding [2] | binding [3] | Substance
1 | binds | no binding (condition: with 10 mM OAS) | – | AtOAS-TL A (untagged) (from UniProt P47998 1-322) (enzyme)
2 | binds | – | – | AtOAS-TL A^S102N (untagged) (from UniProt P47998 1-322) (enzyme)
3 | – | – | binds | S-tag-AtOAS-TL A^S102N (from UniProt P47998 1-322) (enzyme)
